# Laboratory results as given in the supplement of paper PMC5407854, “Inhibitor of ppGalNAc-T3-mediated O-glycosylation blocks cancer cell invasiveness and lowers FGF23 levels” (eLife, 2017).
# The full ranking holds about 1,700 compounds; the median of “T2 sensor activation Q score (MG/GFP ratio z-score vs DMSO controls)” is about 0.3, and the highest 2% start at about 1.9. Some of the results follow.
# System: ppGalNAc-T2 sensor
# Test: T2 sensor activation Q score (MG/GFP ratio z-score vs DMSO controls) (SD units); higher = more sensor activation (inhibition of ppGalNAc-T2 glycosylation)
# Details: HEK293 sensor cells; 10 µM; 6 h
# Description: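 Cells were treated with compound at 10 uM for 6 h, then MG/GFP ratio was read by flow cytometry (10,000 cells per well, duplicate wells). Q = (R - R_neg)/SD_neg relative to DMSO vehicle controls; the signal rises when the glycosyltransferase is inhibited.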
row,SMILES,T2 sensor activation Q score
1,O=C(NC(=S)Nc1ccccn1)c1ccccc1,-1.25
2,Cn1ncc2c(Nc3ccc(O)cc3)nc(Cl)nc21,0.25
3,CSC1=NC=C(C#N)C2=NC(c3ccc(Cl)cc3)NN12 (stereo not drawn),2.45
4,O=c1[nH]c(=S)c2[nH]c(=S)n(-c3ccccc3)c2[nH]1,0.85
5,COC1CC(C)C(OC)c2cc(O)cc(c2O)NC(=O)/C(C)=C/C=C\C(C)C(OC(N)=O)/C(C)=C/C(C)C1OC (stereo not drawn),1.05
6,Cc1ccc(-c2cssc2=S)cc1,1.05
7,O=C(c1ccccc1)c1ccc[nH]1,-1.85
8,Nc1ccc(C(=O)Nc2ccc(NC(=O)c3ccco3)c(O)c2)cc1,-0.3
9,Cc1ccc(S(=O)(=O)Oc2cc(N)c3c(n2)CCC3)cc1,0.3
10,COC(=O)c1ccccc1NCCO,-0.65
11,Cc1cc(NC(=O)Nc2cc(F)ccc2F)no1,0.4
12,O=C(CN1CCCC1)Nc1nc(-c2ccc(Cl)cc2)cs1,-1.45
13,COc1cc2c(cc1OC)C(C1(O)CCCCC1)NCC2 (stereo not drawn),-1.6
14,O=S(=O)(Oc1ccc(Cl)cc1)c1cccc2cccnc12,-2
15,Cc1nn(-c2ccccc2)c2c1C(c1ccc([N+](=O)[O-])cc1)C(C#N)=C(N)O2 (stereo not drawn),-1.35
16,Nc1ccc(C(=O)c2cccs2)cn1,0
17,CC(C)=CCC1=C(OCC(=O)O)C(=O)c2ccccc2C1=O,0.8

row,SMILES,T2 sensor activation Q score
1,COc1cc([N+](=O)[O-])ccc1NC(=O)Oc1ccc(NC(C)=O)cc1,0.6
2,O=C(Nc1ccc(Oc2ccc(NC(=O)Nc3ccccc3Cl)cc2)cc1)Nc1ccccc1Cl,1
3,CC1(C)N=C(N)N=C(N)N1c1ccc(OCCCOc2ccccc2)c(Cl)c1,-0.85
4,O=C1OC(CN(Cc2ccccc2)Cc2ccccc2)CN1/N=C/c1ccc([N+](=O)[O-])o1 (stereo not drawn),0.1
5,CNC(=O)c1cc(Oc2ccc(NC(=O)Nc3ccc(Cl)c(C(F)(F)F)c3)c(F)c2)ccn1,-1.75
6,Cc1c(Cl)ccc2c(C(=O)O)cc(-c3ccccc3)nc12,0.6
7,CCOC(=O)c1c(C)oc(C)c(C(=O)OCC)c1=O,0.35
8,CCc1nc(N)nc(N)c1-c1ccc(N(C)Cc2ccccc2)c([N+](=O)[O-])c1,-1.25
9,Clc1ccc(-c2n[nH]c3c2Cc2ccccc2-3)cc1Cl,0.35
10,Nc1c(Cl)ncnc1NCCO,-1.25
11,CC1=CC2(C)NC(=O)C(C)C12 (stereo not drawn),-0.35
12,Nc1ccc(OC(=O)Nc2ccc(O)cc2)cc1,0.8
13,O=C1NC(=O)C(Cc2ccccc2)(c2cccnc2)N1 (stereo not drawn),-1.6
14,O=C1NC(=O)C2(CCc3ccccc32)N1 (stereo not drawn),1.3
15,CCOC(=O)c1nn(C)c2[nH]c(=O)n(C)c(=O)c12,1.25
16,Cc1ccc2ccc(C#N)cc2c1O,-0.1

# Taken from above:
# For T2 sensor activation Q score, `COc1cc([N+](=O)[O-])ccc1NC(=O)Oc1ccc(NC(C)=O)cc1` reads 0.6
# For T2 sensor activation Q score, `Cc1c(Cl)ccc2c(C(=O)O)cc(-c3ccccc3)nc12` reads 0.6
